Experiment: Proteomic analysis of native murine pancreata and decelled pancreatic ECM (Table 1)
Design: species or system mouse

Row | Molecule | Mean of log2(intensities) (Native pancreas tissue) | Mean of log2(intensities) (Pancreatic ECM (decelled)) | Pancreatic ECM: Mean of log2(intensities) (abundance of the listed protein in decelled pancreatic ECM) | Native pancreas tissue: Mean of log2(intensities) (abundance of the listed protein in native murine pancreas tissue)
1 | Q99LG0 (protein, UniProt Q99LG0 1-825, looked up, full-length) MGKKRTKGRSAPDTVASESAEPVCRHLRKGLEQGNLKKALVNVEWNICQDCKTDNKVKDKPEEEAEDPSVWLCLKCGHQGCGRDSQEQHALKHYTTPRSEPHYLVLSLDNWSVWCYKCDEEVKYCSSNRLGQVVDYVRKQAGVRTSKPAEKNNGHIELENKKLEKESKNEQEREKSENLAKETIPMDSASQITVKGLSNLGNTCFFNAVMQNLSQTPVLRELLKEVKMSGTIVKIEPPDLALTEPLEVNLEPPGPLTLAMSQFLSEMQENKKRVVTPKELFSQVCKKATRFKGYQQQDSQELLRYLLDGMRAEEHQRVSKGILKAFGNSTEKLDEEVKNKVKDYEKKKAIPSFVDRIFGGELTSTIMCDECRTVSLVHESFLDLSLPVLDDQSGKKSINDKNVKMTMEEEDKDSEEEKDDSYMKSRSDLPSGTSKHLQKKAKKQAKKQAKNQRRQQKIQERFLHFNELCATDYTEDNEREADTALAGEVEVDTDSTHGSQEEATQIELSVNQKDLDGQESMIERTPDVQESPEDLGVKSANTESDLGIVTPAPECPRDFNGAFLEERTSGELDIINGLKNLNLNAAVDPDEINIEIPNDSHSAPKVYEVMNEDPETAFCTLANREAFSTDECSIQHCLYQFTRNEKLQDANKLLCEVCSRRQCNGPKANIKGDRRHVYTNAKKQMLVSLAPPVLTLHLKRFQQAGFNLRKVNKHIKFPEILDLAPFCTLKCKNVAEESTRVLYSLYGVVEHSGTMRSGHYTAYAKERTASCHLSNLVLHGDIPQDCEMESTKGQWFHISDTHVQAVPITKVLNSQAYLLFYERIL | 21.63 a.u. | 23.86 a.u. |  | 
2 | Q9CXK8 (protein, UniProt Q9CXK8 1-180, looked up, full-length) MRPLTEEETRVMFEKIAKYIGENLQLLVDRPDGTYCFRLHNDRVYYVSEMMLKLAANISGDKLVSLGTCFGKFTKTHKFRLHVTALDYLAPYAKYKVWVKPGAEQSFLYGNHVLKSGLGRITENTSQYQGVVVYSMADIPLGFGVAAKSTQDCRKVDPMAIVVFHQADIGEYVRHEETLT | 21.61 a.u. | 23.80 a.u. |  | 
3 | Q62009 (protein, UniProt Q62009 1-838, looked up, full-length) MVPLLPLYALLLLFLCDINPANANSYYDKVLAHSRIRGRDQGPNVCALQQILGTKKKYFSSCKNWYQGAICGKKTTVLYECCPGYMRMEGMKGCPAVMPIDHVYGTLGIVGATTTQHYSDVSKLREEIEGKGSYTYFAPSNEAWENLDSDIRRGLENNVNVELLNALHSHMVNKRMLTKDLKHGMVIPSMYNNLGLFINHYPNGVVTVNCARVIHGNQIATNGVVHVIDRVLTQIGTSIQDFLEAEDDLSSFRAAAITSDLLESLGRDGHFTLFAPTNEAFEKLPRGVLERIMGDKVASEALMKYHILNTLQCSEAITGGAVFETMEGNTIEIGCEGDSISINGIKMVNKKDIVTKNGVIHLIDEVLIPDSAKQVIELAGKQQTTFTDLVAQLGLASSLKPDGEYTLLAPVNNAFSDDTLSMDQRLLKLILQNHILKVKVGLSDLYNGQILETIGGKQLRVFVYRTAICIENSCMVRGSKQGRNGAIHIFREIIQPAEKSLHDKLRQDKRFSIFLSLLEAADLKDLLTQPGDWTLFAPTNDAFKGMTSEERELLIGDKNALQNIILYHLTPGVYIGKGFEPGVTNILKTTQGSKIYLKGVNETLLVNELKSKESDIMTTNGVIHVVDKLLYPADIPVGNDQLLELLNKLIKYIQIKFVRGSTFKEIPMTVYTTKIITKVVEPKIKVIQGSLQPIIKTEGPAMTKIQIEGDPDFRLIKEGETVTEVIHGEPVIKKYTKIIDGVPVEITEKQTREERIITGPEIKYTRISTGGGETGETLQKFLQKEVSKVTKFIEGGDGHLFEDEEIKRLLQGDTPAKKIPANKRVQGPRRRSREGRSQ |  |  | 25.09 a.u. | 22.23 a.u.
4 | Q91ZN5 (protein, UniProt Q91ZN5 1-431, looked up, full-length) MDARWWAVVVLATLPSLGAGGESPEAPPQSWTQLWLFRFLLNVAGYASFMVPGYLLVQYLRRKNYLETGRGLCFPLVKACVFGNEPKAPDEVLLAPRTETAESTPSWQVLKLVFCASGLQVSYLTWGILQERVMTGSYGATATSPGEHFTDSQFLVLMNRVLALVVAGLYCVLRKQPRHGAPMYRYSFASLSNVLSSWCQYEALKFVSFPTQVLAKASKVIPVMMMGKLVSRRSYEHWEYLTAGLISIGVSMFLLSSGPEPRSSPATTLSGLVLLAGYIAFDSFTSNWQDALFAYKMSSVQMMFGVNLFSCLFTVGSLLEQGALLEGARFMGRHSEFALHALLLSICSAFGQLFIFYTIGQFGAAVFTIIMTLRQAIAILLSCLLYGHTVTVVGGLGVAVVFTALLLRVYARGRKQRGKKAVPTEPPVQKV | 21.65 a.u. | 23.76 a.u. |  | 
5 | Q8C3X8 (protein, UniProt Q8C3X8 1-702, looked up, full-length) MASSRVPQQLFLQGVAAVYLFAFASLYTQIPGLYGPEGILPARRTLRPQGKGLWQQLWETPTLLWEAPRLGLDTAQGLDLLTLLGTVLALGALLLNSLRHPFVYLLLWVAYRSAYQVGQVFLYFQWDSLLLETGFLAILVAPLRGPSKHKILQGRLAGALPHEDLPFWLVRWLLFRLMFASGVVKLTSRCPTWWGLTALTYHYETQCLPTPAAWFAHHLPVWLHKLSVVATFLIEIAVPPLFFAPIRRLRLTAFYAQALLQVLIIITGNYNFFNLLTLVLTTALLDDRHLSAEPGLRCHKKMPTSWPKALLTALSLLLELTVYGLLAYGTVYYFGLEVDWQQHIILSKTTFTFHQFSQWLKTVTLPTVWLGTASLAWELLVVLWRWIQVQGWSRKFSAGIQLSVLGTATVALFLISLVPYSYVEPGTHGRLWTGAHRLFGSVEHLQLANSYGLFRRMTGVGGRPEVVLEGSYDGQHWTEIEFMYKPGNVSRPPPFLTPHQPRLDWQMWFAALGPHTHSPWFTGLVLRLLQGKEPVIRLVQSHVANYPFHERPPTYLRAQRYKYWFSKPGDQSRWWHRQWVEEFFPSVSLGDPTLETLLQQFGLKDKSPPRARSPSNGLAQTLNWVRTQLSPLEPPILLWGLFGAVVAIRVVQTLLAPRPLQSSKQTREEKRKQTSKKDSRAASEQAAANSNSRDSWAPRRKK | 27.16 a.u. | 29.24 a.u. |  | 
6 | Q9D8W7 (protein, UniProt Q9D8W7 1-154, looked up, full-length) MASVSTHGNQEKSPHLPPLSKQSLLFCPKSKLHIHRGEIAKIIRECQEESFWKRALPFSLISMLVTQGLVHQGYLAANPRFGSLPKVALAGLLGFGLGKASYIRVCQSKFHSFEDQLRGAGFGPEHNRHCLLTCEDCKTRRGLSEKAGSQPSAS | 21.72 a.u. | 23.83 a.u. |  | 
7 | Q78XF5 (protein, UniProt Q78XF5 1-149, looked up, full-length) METLYRVPFLVLECPNLKLKKPPWVHMPSAMTVYALVVVSYFLITGGIIYDVIVEPPSVGSMTDEHGHQRPVAFLAYRVNGQYIMEGLASSFLFTMGGLGFIILDRSNAPNIPKLNRFLLLFIGFVCVLLSFFMARVFMRMKLPGYLMG | 27.56 a.u. | 29.68 a.u. |  | 
8 | Q9R0Q9 (protein, UniProt Q9R0Q9 1-247, looked up, full-length) MAGEADGRFKGLLVPILLPEKCYDQLFVQWDLLHVPCLKILLSKGLGLGIVAGSLLVKLPQVFKLLGAKSAEGLSLQSVMLELVALTGTVVYSITNNFPFSSWGEALFLTLQTVAICFLVMHYRGETVKGVAFLACYAMVLLALLSPLTPLAVVTLLQASNVPAVVVGKLLQAATNYRNGHTGQLSAITVFMLFGGSLARIFTSVQETGDPLMAGVFVVSSLCNGLIAAQVLFYWNAKAPHKQKKEQ | 24.74 a.u. | 26.89 a.u. |  | 
